This experiment addresses Lsr2 DNA binding domain (Lsr2BD), wild type (M. tuberculosis H37Rv) (UniProt P9WIP7). In words: solution NMR.

These are yes or no findings as the source states them, for the method shown.

Regarding “Lsr2 DNA binding domain (Lsr2BD), wild type (from UniProt P9WIP7 66-112) (domain or fragment)”, the binding result is given as “no binding (tested: 0.5mM)”.
